The entries are a selection whose mix differs from that of the whole data set. Records with an inconclusive call do not appear. Activity calls are given as the source filed them. How the source made its calls: active means hit-call score of the fitted dose curve at least 0.9, where 1 is the maximum; inconclusive means response in the unintended direction; inactive means score below 0.9.
target: human Cyclin-Dependent Kinase 6 (CDK6), CDK6 (gene 1021) (UniProt Q00534); experiment: NVS_ENZ_hCDK6: NovaScreen (NVS) Enzymatic Assay for human Cyclin-Dependent Kinase 6 (CDK6)
Description: NVS_ENZ_hCDK6 is a biochemical, single-readout assay that uses extracted gene-proteins in a cell-free assay. Measurements were taken 1 hour after chemical dosing in a 384-well plate.NVS_ENZ_hCDK6 is one of one assay component(s) measured or calculated from the NVS_ENZ_hCDK6 assay. It is designed to make measurements of enzyme activity, a form of enzyme reporter, as detected with fluorescence intensity signals by Fluorescence and electrophoretic mobility shift technology.Data from the assay component NVS_ENZ_hCDK6 was analyzed into 1 assay endpoint. This assay endpoint, NVS_ENZ_hCDK6, was analyzed in the positive analysis fitting direction relative to DMSO as the negative control and baseline of activity. Using a type of enzyme reporter, loss-of-signal activity can be used to understand changes in the enzymatic activity as they relate to the gene CDK6. Furthermore, this assay endpoint can be referred to as a primary readout, because this assay has produced multiple assay endpoints where this one serves a enzymatic activity function. To generalize the intended target to other relatable targets, this assay endpoint is annotated to the kinase intended target family, where the subfamily is serine/threonine kinase. […]

Protein sequences, listed by entry. Tags and fused reporters are not part of them.
UniProt Q00534, whole entry, looked up: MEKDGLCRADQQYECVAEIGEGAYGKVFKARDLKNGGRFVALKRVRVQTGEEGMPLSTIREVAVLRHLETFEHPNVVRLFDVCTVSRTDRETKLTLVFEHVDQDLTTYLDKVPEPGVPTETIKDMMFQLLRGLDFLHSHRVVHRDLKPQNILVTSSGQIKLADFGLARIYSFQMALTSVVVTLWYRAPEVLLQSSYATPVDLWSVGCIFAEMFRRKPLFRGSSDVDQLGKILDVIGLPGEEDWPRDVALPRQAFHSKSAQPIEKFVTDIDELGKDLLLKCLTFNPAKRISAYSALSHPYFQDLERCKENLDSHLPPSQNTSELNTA

SMILES	AC50
O=S(=O)(O)C(F)(F)C(F)(F)C(F)(F)C(F)(F)C(F)(F)C(F)(F)C(F)(F)C(F)(F)F	active: 18 µM

From PubChem BioAssay AID2283145 (EPA ToxCast)
